From patent publication US20040048827A1, “S-adenosylmethionine and derivatives thereof for the treatment and prevention of alzheimer's disease” (priority 2000, published 2004)
For at least one compound, name, drawing or mass did not settle the structure.

System: PS1 gene promoter
Test: Methylation assay of PS1 gene promoter by Multiplex-HpaII/PCR
Type: cell-based, human
Conditions: SAM in DM, 72 hours, HpaII digestion/PCR densitometry

SMILES: C[S+](CC[C@H](N)C(=O)O)C[C@H]1O[C@@H](n2cnc3c(N)ncnc32)[C@H](O)[C@@H]1O (stereo partly shown) [SAM, S-adenosylmethionine]
- hypomethylation reduction of PS1 gene promoter: about 1:2 ratio
